# According to the supplement of paper PMC12823440, “Inhibitors supercharge kinase turnover through native proteolytic circuits” (Nature, 2025):
# Sequences of proteins named here, by UniProt entry; tags and fusion partners are left off.
# UniProt P09619, whole entry: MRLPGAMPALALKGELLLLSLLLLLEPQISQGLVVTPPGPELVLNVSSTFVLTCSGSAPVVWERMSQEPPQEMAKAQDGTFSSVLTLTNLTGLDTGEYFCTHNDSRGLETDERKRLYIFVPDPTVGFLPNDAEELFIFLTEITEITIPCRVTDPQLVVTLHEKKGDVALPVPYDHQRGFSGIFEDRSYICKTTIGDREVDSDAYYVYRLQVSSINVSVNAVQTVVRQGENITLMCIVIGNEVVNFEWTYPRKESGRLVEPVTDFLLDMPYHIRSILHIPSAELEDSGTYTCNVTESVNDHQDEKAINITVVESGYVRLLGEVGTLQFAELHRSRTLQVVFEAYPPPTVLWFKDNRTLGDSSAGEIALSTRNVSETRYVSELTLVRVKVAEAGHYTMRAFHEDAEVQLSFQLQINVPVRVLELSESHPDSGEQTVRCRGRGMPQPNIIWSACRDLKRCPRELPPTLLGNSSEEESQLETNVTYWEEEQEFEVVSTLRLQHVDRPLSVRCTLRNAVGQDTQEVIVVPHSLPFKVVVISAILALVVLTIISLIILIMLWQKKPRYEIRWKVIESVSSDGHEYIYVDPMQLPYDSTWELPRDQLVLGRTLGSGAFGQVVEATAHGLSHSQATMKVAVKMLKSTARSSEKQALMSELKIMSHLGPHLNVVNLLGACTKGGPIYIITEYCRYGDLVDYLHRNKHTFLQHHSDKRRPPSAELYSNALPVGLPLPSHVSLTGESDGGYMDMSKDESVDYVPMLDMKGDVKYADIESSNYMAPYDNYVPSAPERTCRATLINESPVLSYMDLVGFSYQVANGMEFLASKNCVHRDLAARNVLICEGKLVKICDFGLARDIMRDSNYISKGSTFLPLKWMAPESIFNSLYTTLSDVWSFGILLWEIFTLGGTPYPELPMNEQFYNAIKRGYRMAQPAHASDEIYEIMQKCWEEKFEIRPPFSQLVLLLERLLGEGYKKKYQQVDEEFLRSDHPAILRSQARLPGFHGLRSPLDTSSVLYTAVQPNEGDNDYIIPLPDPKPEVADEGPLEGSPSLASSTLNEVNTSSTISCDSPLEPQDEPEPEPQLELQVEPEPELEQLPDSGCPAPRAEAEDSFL
# UniProt Q15118, whole entry, looked up: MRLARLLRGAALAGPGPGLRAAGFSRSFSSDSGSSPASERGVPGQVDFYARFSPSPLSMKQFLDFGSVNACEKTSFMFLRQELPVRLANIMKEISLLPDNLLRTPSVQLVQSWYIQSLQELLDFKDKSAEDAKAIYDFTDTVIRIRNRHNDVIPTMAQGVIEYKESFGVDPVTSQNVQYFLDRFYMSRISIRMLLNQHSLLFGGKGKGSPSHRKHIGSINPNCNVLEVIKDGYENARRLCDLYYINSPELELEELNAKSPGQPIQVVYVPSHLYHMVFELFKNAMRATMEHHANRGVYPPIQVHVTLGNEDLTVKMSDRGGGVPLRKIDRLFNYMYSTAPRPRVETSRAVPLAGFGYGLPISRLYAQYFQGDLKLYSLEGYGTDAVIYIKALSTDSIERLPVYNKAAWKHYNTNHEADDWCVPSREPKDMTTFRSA
# Structures can show the parent of a compound that is named as a salt. This is one part of the list. The calls rarely recur for the same compound in another form.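 Kinases were expressed as nanoluciferase fusions in K562 cells and luminescence was read every 4 h between 2 and 18 h as percent of control, DMSO set to 100% and a positive control to 0%. A time point counts as decreased when the signal drops significantly (2 sigma). The hit call is the authors' own, does not follow from the count of time points alone, and its rule is not shown.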
# Molecular target: PDGFRB (UniProt P09619)
# Assay: number of time points (of 5) at which kinase-Nluc abundance scored as decreased, DMSO-normalised (count); higher = more persistent destabilization
# Conditions: K562; 2-18 h
row,Structure (SMILES),number of time points
1,Nc1ncnc2c1ncn2[C@@H]1O[C@@H]2COP(O)(=S)O[C@H]2[C@H]1O (stereo partly specified) [Sp-cAMPS (sodium salt)] (10 µM),0
2,CN(C)C(=O)c1ccc(Cn2c(C(=O)O)cc3c(Br)cc(Sc4ccc(Cl)c(Cl)c4)cc32)cc1 [Rheb inhibitor NR1] (10 µM),0
3,C/C=C(/C)C(=O)O[C@H]1[C@@H]2[C@H](C)C(=O)O[C@@H]2C[C@@H](C)[C@@H]2C=CC(=O)[C@]21C [Brevilin A] (2.5 µM),0

# Molecular target: PDK1 (UniProt Q15118)
# Assay: as above
# Conditions: K562; 2-18 h
row,Structure (SMILES),number of time points
1,C[C@H]1CC[C@]2(NC1)O[C@H]1C[C@H]3[C@@H]4CC[C@H]5C[C@@H](O[C@@H]6O[C@H](CO)[C@H](O[C@@H]7O[C@H](CO)[C@@H](O)[C@H](O[C@@H]8OC[C@@H](O)[C@H](O)[C@H]8O)[C@H]7O[C@@H]7O[C@H](CO)[C@@H](O)[C@H](O)[C@H]7O)[C@H](O)[C@H]6O)CC[C@]5(C)[C@H]4CC[C@]3(C)[C@H]1[C@@H]2C [Tomatine] (2.5 µM),0
2,CCCCNc1nc(N)c2[nH]c(=O)n(Cc3ccc(C)nc3)c2n1 (10 µM),0
3,C[C@H](CCC(=O)O)C[C@H](C)C[C@H](C)C(=O)/C=C(\O)[C@H](C)C[C@H](C)C/C=C/[C@@H](C)[C@@H](O)[C@@H](C)[C@@H](O)C[C@@H]1CC[C@@](C)([C@H]2CC[C@@](C)([C@@H](C)O)O2)O1 [Ionomycin (calcium)] (2.5 µM),0
4,CCOC(=O)c1c(/C(C#N)=C\N)c2ccc(Cl)c(Cl)c2n1C (10 µM),0
5,CC(=O)OC(C)(C)/C=C/C(=O)[C@](C)(O)[C@H]1[C@H](O)C[C@@]2(C)[C@@H]3CC=C4[C@@H](C=C(O)C(=O)C4(C)C)[C@]3(C)C(=O)C[C@]12C [Cucurbitacin E] (2.5 µM),0
6,O=C1C=CC[C@@H]2[C@H]3CCCN4CCC[C@@H](CN12)[C@@H]34 [Sophocarpine (monohydrate)] (2.5 µM),0
7,C=CC(=O)Nc1ccc2[nH]c(=O)n(C3CCN(Cc4ccc(-c5nc6cc[nH]c(=O)c6cc5-c5ccccc5)cc4)CC3)c2c1 [Borussertib] (10 µM),0
8,O=C1C=CC[C@@H]2[C@H]3CCCN4CCC[C@@H](CN12)[C@@H]34 [Sophocarpine] (10 µM),0
9,C=CC(=O)N[C@H]1C=C(C)c2c(-c3cnc4ccccc4c3)c3c(N)ncnc3n2C1 (10 µM),0
10,Cn1cc(C2=C(c3cn(C4CCN(Cc5ccccn5)CC4)c4ccccc34)C(=O)NC2=O)c2ccccc21 [Enzastaurin] (10 µM),0
11,CCN1CCN(C(=O)Cc2ccc(Nc3ncc(F)c(Nc4ccc(C(=O)Nc5ccccc5Cl)cc4)n3)cc2)CC1 (2.5 µM),0
12,C[C@H]1CC[C@]2(NC1)O[C@H]1C[C@H]3[C@@H]4CC[C@H]5C[C@@H](O)CC[C@]5(C)[C@H]4CC[C@]3(C)[C@H]1[C@@H]2C [Tomatidine (hydrochloride)] (10 µM),0
13,O=[N+]([O-])/C=C/c1ccc2c(c1)OCO2 (2.5 µM),0
14,NCCc1cn(S(=O)(=O)c2c(Cl)nc3sccn23)c2ccccc12 (10 µM),0
15,COc1ccc(N(C(=O)Oc2c(C)cccc2C)c2ccnc(Nc3ccc(N4CCN(C)CC4)cc3)n2)c(OC)c1 (2.5 µM),0
16,Cc1ccccc1-n1c(Cn2cnc3c(N)ncnc32)nc2cccc(C)c2c1=O (10 µM),0
17,Cc1[nH]ncc1-c1cc2nc([C@H]3CC4CCN3CC4)[nH]c(=O)c2s1 [(R)-Simurosertib] (10 µM),0
18,CC1C(=O)OC2C(O)C34C5OC(=O)C3(OC3OC(=O)C(O)C34C(C(C)(C)C)C5O)C12O (stereo unspecified) [Ginkgolide C] (10 µM),0
19,O=C(/C=C/c1ccccc1)OC[C@H]1O[C@@H](O[C@@H]2OC=C[C@H]3[C@H](O)[C@@H]4O[C@]4(CO)[C@@H]23)[C@H](O)[C@@H](O)[C@@H]1O [Picroside I] (10 µM),0
20,CC1=C[C@]23C(=O)[C@@H](C=C(CO)[C@@H](O)[C@]2(O)[C@H]1O)[C@H]1[C@@H](C[C@H]3C)C1(C)C [Ingenol] (10 µM),0
21,O=Cc1cn(Cc2ccc(Cl)cc2)c2ccccc12 [Oncrasin-1] (10 µM),0
22,C[C@@H]1CC[C@H]2[C@@H](C)C(=O)O[C@@H]3O[C@@]4(C)CC[C@@H]1[C@]32OO4 [Artemisinin] (10 µM),0
23,C[C@H](Nc1ncnc2[nH]cnc12)c1nc2ccc(F)cc2c(=O)n1-c1ccccc1 [Acalisib] (10 µM),0
24,O=C1c2ccccc2C(=O)c2c1cccc2-c1cnn(C2CCNCC2)c1 [PDK4-IN-1 (hydrochloride)] (10 µM),0
25,Cc1ccccc1-n1c(Cn2ncc3c(N)ncnc32)nc2cccc(C)c2c1=O (10 µM),0
26,Nc1ncnc2c1ncn2[C@@H]1O[C@@H]2COP(O)(=S)O[C@H]2[C@H]1O (stereo partly specified) [Sp-cAMPS (sodium salt)] (10 µM),0
27,CN(C)C(=O)c1ccc(Cn2c(C(=O)O)cc3c(Br)cc(Sc4ccc(Cl)c(Cl)c4)cc32)cc1 [Rheb inhibitor NR1] (10 µM),0
28,C/C=C(/C)C(=O)O[C@H]1[C@@H]2[C@H](C)C(=O)O[C@@H]2C[C@@H](C)[C@@H]2C=CC(=O)[C@]21C [Brevilin A] (2.5 µM),0
